# Measured values taken from PubChem BioAssay AID1259415 (National Center for Advancing Translational Sciences (NCATS), 2018).
# Out of some 410,000 compounds screened, about 18,000 (4.4%) were called active. The shares of active, inactive and inconclusive entries below differ from those in the screen. No stated cut-off is given here; in the data, active means activity change below about -60%; inconclusive means no clear call, values can overlap the other calls; inactive means above about -39%.
# Experiment: qHTS Assay for inhibitors of the human cytomegalovirus (HCMV)
# Conditions: HFF cells, HCMV-luciferase reporter, 72 h; at 57.5 µM; active compounds read low
# Summary of the method: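 After 16 h attachment at 37C, HFF cells received test compound and HCMV-luciferase (1 PFU/cell); reporter luminescence read 72 h later, data normalized against buffer-only and known inhibitor Salinomycin.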
# On the % scale 0 is the no-effect control and ±100 the full control effect.
row,SMILES,"activity change, negative = inhibition"
1,CCn1c2ccccc2c2nnc(N3CCN(c4cccc(Cl)c4)CC3)nc21,inconclusive: -42.9%
2,Cc1ccc2cc(CN(C(=O)c3ccco3)c3cccc(C)c3C)c(=O)[nH]c2c1,inconclusive: -48.5%
3,CCOC(=O)c1c(C)[nH]c(CCC(=O)NCc2ccc(OC)c(OC)c2)c1C,inconclusive: -41.6%
4,COc1ccc(OC)c(CNC(=O)CCSCc2ccc(F)cc2Cl)c1,inconclusive: -56.1%
5,Cc1ccc(C(=O)NC(=C(Cl)Cl)S(=O)(=O)c2ccccc2)cc1,active: -69.6%
6,Cc1ccc(C)c(S(=O)(=O)N2CCN(C(=O)CSc3ccccc3F)CC2)c1,inactive: -32.5%
7,Cc1cc(Cl)ccc1OCC(=O)NNC(=O)C1CCN(c2ncnc3sc(C)c(C)c23)CC1,inconclusive: -40.6%
8,Cc1ccc(OCC(=O)N/N=C\c2cn(Cc3ccccc3)c3ccccc23)cc1C,inconclusive: -40.2%
9,COc1cc(C(=O)O)c2ccccc2n1,inconclusive: -53.5%
10,Fc1ccc(Nc2nc(SCc3ccccc3Cl)nc3ccccc23)cc1,inconclusive: -47.6%
11,COc1cccc(/C=C2\SC(=S)N(CCCC(=O)N(CCO)c3ccccc3)C2=O)c1,active: -96.7%
12,CCc1nn(C(CC)C(=O)NCc2cccc(OC)c2)c(=O)c2cc3occc3n12 (stereo not drawn),inconclusive: -46%
13,O[C@@H]1[C@@H](O)C=C2CCN3Cc4cc5c(cc4[C@H]1C23)OCO5 (stereo partly drawn),active: -97.6%
14,O=C(Nc1ccc2oc(-c3ccc(F)cc3)nc2c1)c1ccccc1F,inconclusive: -48.4%
15,O=C(CSc1nnc(-c2ccccc2)c(-c2ccccc2)n1)NCC1CCCO1 (stereo not drawn),inconclusive: -50.6%
16,CCc1cc(=O)oc2c3c(cc(OCC(=O)NCCC(=O)O)c12)OC(C)(C)CC3,inconclusive: -47.2%
17,CC(=O)Nc1ccc(N/C=C/C(=O)c2ccco2)cc1,inactive: 55.6%
18,Cn1cnnc1Sc1ccc(C(=O)NCCC23CC4CC(CC(C4)C2)C3)cc1[N+](=O)[O-],inconclusive: -44.9%
19,CCC1=Nc2cc(C(=O)NCCc3ccc(OC)c(OC)c3)ccc2Sc2ccccc21,inconclusive: -41.3%
20,COC(=O)c1c(C)[nH]c(C)c1-c1ccccc1,inconclusive: -45.1%
21,CCc1c(C)sc2c1CCN(Cc1cccc(OC)c1)C2c1ccccc1 (stereo not drawn),active: -85.6%
22,Cn1nc(C(F)(F)F)c(-c2ccc(Br)cc2)c1NC(=O)c1ccco1,inconclusive: -41.6%

# An excerpt of these results, as tab-separated lines.
row	SMILES	activity change, negative = inhibition
1	CCn1c2ccccc2c2nnc(N3CCN(c4cccc(Cl)c4)CC3)nc21	inconclusive: -42.9%
2	Cc1ccc2cc(CN(C(=O)c3ccco3)c3cccc(C)c3C)c(=O)[nH]c2c1	inconclusive: -48.5%
3	CCOC(=O)c1c(C)[nH]c(CCC(=O)NCc2ccc(OC)c(OC)c2)c1C	inconclusive: -41.6%
4	COc1ccc(OC)c(CNC(=O)CCSCc2ccc(F)cc2Cl)c1	inconclusive: -56.1%
5	Cc1ccc(C(=O)NC(=C(Cl)Cl)S(=O)(=O)c2ccccc2)cc1	active: -69.6%
6	Cc1ccc(C)c(S(=O)(=O)N2CCN(C(=O)CSc3ccccc3F)CC2)c1	inactive: -32.5%
7	Cc1cc(Cl)ccc1OCC(=O)NNC(=O)C1CCN(c2ncnc3sc(C)c(C)c23)CC1	inconclusive: -40.6%
8	Cc1ccc(OCC(=O)N/N=C\c2cn(Cc3ccccc3)c3ccccc23)cc1C	inconclusive: -40.2%
9	COc1cc(C(=O)O)c2ccccc2n1	inconclusive: -53.5%
10	Fc1ccc(Nc2nc(SCc3ccccc3Cl)nc3ccccc23)cc1	inconclusive: -47.6%
11	COc1cccc(/C=C2\SC(=S)N(CCCC(=O)N(CCO)c3ccccc3)C2=O)c1	active: -96.7%
12	CCc1nn(C(CC)C(=O)NCc2cccc(OC)c2)c(=O)c2cc3occc3n12 (stereo not drawn)	inconclusive: -46%
13	O[C@@H]1[C@@H](O)C=C2CCN3Cc4cc5c(cc4[C@H]1C23)OCO5 (stereo partly drawn)	active: -97.6%

# Next records follow.

row,SMILES,"activity change, negative = inhibition"
1,Cc1nn(CCCC(=O)NCCc2ccccc2)c(=O)c2nccn12,active: -98%
2,COCCn1c(CN2CCN(c3cccc(Cl)c3)CC2)nc2c1c(=O)n(C)c(=O)n2C,inconclusive: -49.5%
3,COc1ccc(NC(=O)CSc2nc(-c3cccs3)cc(C(F)(F)F)n2)cc1Cl,inconclusive: -44.3%
4,CN(c1ccccc1)S(=O)(=O)c1cccc(C(=O)NCc2ccccc2CN2CCCC2)c1,inconclusive: -51.6%
5,COc1ccc(-c2cn(CCc3c[nH]c4ccccc34)nn2)cc1,inconclusive: -48.4%
6,CC(=O)Nc1ccc(OC(=O)N2CCCCC2)cc1,inconclusive: -55.2%
7,C=CCn1nnnc1SCC(=O)Nc1ccc(OC)cc1,inactive: -2.67%
8,Nc1[nH]c(C(=O)c2ccccc2)c(-c2ccccc2Br)c1C(=O)NCCc1c[nH]c2ccccc12,inactive: -39.6%
9,CCCCn1c(SCc2nnc(-c3ccccc3)o2)nc2c1c(=O)n(C)c(=O)n2C,active: -65.5%
10,CCN1C(C)=C(C)S/C1=C1\SC(=S)N(N)C1=O,inconclusive: -54.1%
11,CCOC(=O)N1CCN(c2ncc(C(F)(F)F)cc2Cl)CC1,inconclusive: -40.2%
12,Cc1ccc(S(=O)(=O)N2C3CC(c4ccccc4)N(S(=O)(=O)c4ccccc4Cl)CC3C(=O)C[C@H]2c2ccccc2)cc1 (stereo partly drawn),inconclusive: -44.4%
13,Cc1cc(C)n(CCc2nc3c4ccccc4nc(SCc4ccc(F)cc4)n3n2)n1,inactive: -3.98%
14,N#Cc1cnn(-c2cccc(Cl)c2)c1N,inconclusive: -48.7%
15,CSc1ccc(Cl)c(C(=O)OCC(=O)N2CCN(c3ccccc3)CC2)c1,inconclusive: -47.3%
16,C[C@H](CO)N1C[C@H](C)[C@H](CN(C)C(=O)Nc2ccc(N3CCN(C)CC3)cc2)OCc2cnnn2CCCC1=O,inactive: 7.64%
17,CCN1CCN(CC(c2ccccc2)c2ccccc2)CC1,inconclusive: -59.7%
18,COc1ccc(/C=C(\C#N)C(=O)Nc2cccc(C)n2)cc1,inconclusive: -40.8%
19,CN(N)c1nc(N2CCCC2)nc(N2CCCC2)n1,inconclusive: -43.1%
20,COc1cccc(C(Nc2ccccn2)c2c(NC(=O)c3ccco3)sc(C)c2C)c1 (stereo not drawn),inconclusive: -41.8%
21,CCN(CC)S(=O)(=O)c1cccc(C(=O)NCCCN2CCOCC2)c1,inactive: -6.75%
